In PubChem BioAssay (EPA / NIEHS):
The inconclusive results got no clear call from the source; some entries with a clear call stand among them for comparison. For some of these results: Where the call is inconclusive, the potency comes from a doubtful curve fit. Calls of active or inactive are those of the source. Rule for the calls: active = hit-call score of the fitted dose curve at least 0.9, where 1 is the maximum; inconclusive = response in the unintended direction; inactive = score below 0.9.

Legend:
[1] = Tanguay_ZF_120hpf_BRAI_legacy: (Legacy) Oregon State University Tanguay Lab 120 Hour Post-fertilization zebrafish Assay for Brain Malformation (AID 2283641)
Method in brief: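 Wild-type 5D larvae, static waterborne exposure to 120 hpf, 28C, 0.64% v/v DMSO. Brightfield scoring of brain defects, binary; dead embryos excluded. Positive ctrl 5uM trimethyltin chloride.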

[2] = Tanguay_ZF_120hpf_SOMI_legacy: (Legacy) Oregon State University Tanguay Lab 120 Hour Post-fertilization zebrafish Assay for Somite Malformation (AID 2283647)
Method in brief: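 Read-out: presence or absence of somite malformation in 120 hpf larvae, gain-of-signal relative to DMSO baseline. Embryos lacked chorion (pronase, 4 hpf) and were exposed statically from 6 hpf at 28C; dead larvae not scored.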

[3] = Tanguay_ZF_120hpf_CFIN_legacy: (Legacy) Oregon State University Tanguay Lab 120 Hour Post-fertilization zebrafish Assay for Caudal Fin Malformation (AID 2283649)
Method in brief: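 Binary presence or absence of caudal fin malformation at 120 hpf, read by brightfield microscopy, with DMSO as baseline. Larvae came from 5D wild-type embryos exposed statically from 6 hpf at 28C after pronase dechorionation.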

[4] = Tanguay_ZF_120hpf_PIG_legacy: (Legacy) Oregon State University Tanguay Lab 120 Hour Post-fertilization zebrafish Assay for Pigmentation Malformation (AID 2283650);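 note: dechorionated Tropical 5D zebrafish embryos exposed singly from 6 to 120 hpf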
Method in brief: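 Brightfield scoring of pigmentation malformation at 120 hpf, recorded as binary present/absent per larva. Exposure: dechorionated 5D wild-type embryos, one per well, static from 6 hpf at 28C, final DMSO 0.64% (vol/vol). Dead embryos not scored.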

[5] = Tanguay_ZF_120hpf_CIRC_legacy: (Legacy) Oregon State University Tanguay Lab 120 Hour Post-fertilization zebrafish Assay for Circulatory Malformation (AID 2283651)
Method in brief: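 Binary circulatory-malformation call at 120 hpf via brightfield imaging, relative to DMSO controls. Embryos (5D strain, chorion removed) received static, light-shielded exposure at 28C.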

[6] = Tanguay_ZF_120hpf_TR_legacy: (Legacy) Oregon State University Tanguay Lab 120 Hour Post-fertilization zebrafish Assay for Touch Response (AID 2283667)
Method in brief: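 Binary touch-response call at 120 hpf, analysed as gain of signal versus DMSO baseline. Wild-type 5D larvae, static exposure at 28C, 0.64% DMSO final; 5uM trimethyltin chloride as positive control.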

[7] = Tanguay_ZF_120hpf_PFIN_legacy: (Legacy) Oregon State University Tanguay Lab 120 Hour Post-fertilization zebrafish Assay for Pectoral Fin Malformation (AID 2283648);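 note: each larva judged yes or no for fin defect by brightfield with dead larvae skipped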
Method in brief: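 Binary pectoral fin malformation call at 120 hpf by brightfield microscopy; 5D wild-type zebrafish, chorion removed at 4 hpf, one embryo per well from 6 hpf, static exposure at 28C; DMSO (0.64% final) as baseline.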

[8] = Tanguay_ZF_120hpf_TRUN_legacy: (Legacy) Oregon State University Tanguay Lab 120 Hour Post-fertilization zebrafish Assay for Truncated Body (AID 2283655)
Method in brief: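 Truncated body is recorded as a binary endpoint at 120 hpf by brightfield imaging of wild-type 5D larvae. Exposure runs statically from 6 hpf at 28C with 0.64% DMSO; embryos dying earlier are not scored.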

[9] = Tanguay_ZF_120hpf_NC_legacy: (Legacy) Oregon State University Tanguay Lab 120 Hour Post-fertilization zebrafish Assay for Notochord and Tail Malformation (AID 2283656)
Method in brief: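 Binary notochord-distortion calls, made by brightfield inspection, form the read-out; activity is fitted in the positive direction against DMSO. Exposure ran statically from 6 to 120 hpf at 28C with 0.64% DMSO.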

[10] = read-out: xenobiotic metabolism (CYP1A1), CYP1A1 (gene 1543); test: CLD_CYP1A1_6hr: CellzDirect (CLD) Gene Expression Assay for xenobiotic metabolism (CYP1A1) at 6 hours (AID 2283661);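 note: potency for transcript induction above DMSO vehicle baseline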
Method in brief: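 Read-out 6 h post-dose: qNPA chemiluminescent quantitation of transcript induction against 0.2% DMSO. Cells were cultured primary human hepatocytes from two separate donor preparations; phase-contrast morphology annotated apparent cytotoxicity.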

[11] = read-out: xenobiotic metabolism (CYP1A2), CYP1A2 (gene 1544); test: CLD_CYP1A2_6hr: CellzDirect (CLD) Gene Expression Assay for xenobiotic metabolism (CYP1A2) at 6 hours (AID 2283663);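 note: potency is for induction meaning a rise in mRNA above DMSO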
Method in brief: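 mRNA levels quantified by quantitative nuclease protection assay with chemiluminescence, 6 h after dosing human primary hepatocyte cultures (two donors) across several concentrations, vehicle 0.2% DMSO. Induction fitted upward versus DMSO; phase-contrast cytotoxicity annotated.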

[12] = read-out: xenobiotic metabolism (CYP2C9), CYP2C9 (gene 1559); test: CLD_CYP2C9_6hr: CellzDirect (CLD) Gene Expression Assay for xenobiotic metabolism (CYP2C9) at 6 hours (AID 2283664)
Method in brief: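 Readout is qNPA chemiluminescence of CYP2C9 mRNA, taken 6 h after dosing of cultured human liver primary cells at several concentrations. Activity is the increase over 0.2% DMSO baseline. Morphology-based cytotoxicity flagged yes/no.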

[13] = read-out: alkyl and aryl transferase (GSTA2), GSTA2 (gene 2939); test: CLD_GSTA2_6hr: CellzDirect (CLD) Gene Expression Assay for alkyl and aryl transferase (GSTA2) at 6 hours (AID 2283666)
Method in brief: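 GSTA2 transcript induction at 6 h, quantified by nuclease protection (qNPA) with chemiluminescent detection, in human liver primary hepatocytes exposed to several compound concentrations with 0.2% DMSO as baseline; phase-contrast morphology annotated apparent cytotoxicity.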

[14] = read-out: organic anion transporter (SLCO1B1), SLCO1B1 (gene 10599); test: CLD_SLCO1B1_6hr: CellzDirect (CLD) Gene Expression Assay for organic anion transporter (SLCO1B1) at 6 hours (AID 2283668);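 note: active means mRNA induction above DMSO baseline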
Method in brief: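 SLCO1B1 mRNA induction measured 6 h after dosing by quantitative nuclease protection with chemiluminescent read-out, in human primary hepatocyte cultures given chemicals at several concentrations (vehicle 0.2% DMSO). Increase over DMSO baseline fitted; morphology-based cytotoxicity annotated yes/no.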

[15] = Tanguay_ZF_120hpf_PE_legacy: (Legacy) Oregon State University Tanguay Lab 120 Hour Post-fertilization zebrafish Assay for Pericardial Edema (AID 2283640);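 note: potency for increased incidence of pericardial edema versus DMSO baseline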
Method in brief: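 Embryos from wild-type 5D adults were staged, then dosed in 0.64% DMSO. They were kept sealed in the dark at 28C until 120 hpf. Pericardial edema was then recorded as present or absent.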

[16] = Tanguay_ZF_120hpf_SWIM_legacy: (Legacy) Oregon State University Tanguay Lab 120 Hour Post-fertilization zebrafish Assay for Swim Bladder Malformation (AID 2283654);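 note: swim bladder malformation in each larva scored yes or no under brightfield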
Method in brief: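 Tropical 5D embryos dechorionated at 4 hpf; 1 embryo/well from 6 hpf; static, sealed, dark exposure at 28C until 120 hpf; final DMSO 0.64%; 5uM trimethyltin chloride positive control; swim bladder defect recorded yes/no; dead embryos not scored.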

## CC1(C)NC(=O)NC1=O
[1]
  AC50: inconclusive: 9.29 µM
[2]
  AC50: inconclusive: 167 µM
[3]
  outcome: inactive
[4]
  AC50: inconclusive: 7.37 µM
[5]
  AC50: inconclusive: 18.5 µM
[6]
  AC50: inconclusive: 84.1 µM

## CCCCC(CC)COC(=O)CCCCC(=O)OCC(CC)CCCC (stereo not given)
[1]
  outcome: inactive

## C#CCOC(=O)[C@@H](C)Oc1ccc(Oc2ncc(Cl)cc2F)cc1
[1]
  AC50: inconclusive: 34.1 µM
[7]
  AC50: inconclusive: 90.5 µM
[3]
  AC50: inconclusive: 202 µM
[5]
  AC50: inconclusive: 127 µM
[8]
  AC50: inconclusive: 194 µM
[9]
  AC50: inconclusive: 15 µM
[10]
  AC50: inconclusive: 0.0128 µM
[11]
  AC50: inconclusive: 0.00711 µM
[12]
  outcome: inactive
[13]
  AC50: inconclusive: 0.000424 µM
[14]
  outcome: inactive

## Cn1cnc2c1c(=O)[nH]c(=O)n2C
[15]
  AC50: inconclusive: 80.3 µM
[7]
  outcome: inactive
[3]
  AC50: inconclusive: 13.3 µM
[8]
  AC50: inconclusive: 17.3 µM

## Oc1ccc2c(c1)-c1ccccc1C2
[15]
  AC50: active: 34.5 µM
[2]
  AC50: active: 49.1 µM
[7]
  AC50: active: 36 µM
[3]
  AC50: active: 35.1 µM
[4]
  AC50: active: 41 µM
[6]
  AC50: active: 32.1 µM

## CCCCCCCCCCCCCO
[15]
  AC50: inconclusive: 208 µM
[4]
  outcome: inactive
[16]
  AC50: inconclusive: 1.78 µM

## O=C1O[C@H]([C@H](O)CO)C(O)=C1O
[15]
  AC50: inconclusive: 1.06 µM

## O=C1O[C@H]([C@@H](O)CO)C(O)=C1O
[15]
  AC50: inconclusive: 55.4 µM
[1]
  outcome: inactive
[7]
  outcome: inactive
[4]
  outcome: inactive
[5]
  outcome: inactive
[16]
  AC50: inconclusive: 31.5 µM

## CN(C)c1ccc(N=NS(=O)(=O)O)cc1
[1]
  AC50: inconclusive: 23.7 µM
[7]
  AC50: inconclusive: 29.7 µM
